Data as given in PubChem BioAssay AID1259254 (NCATS, 2017)
The deposit covers about 59,000 reagents; this is a random part of them. About 1,550 of them (2.6%) count as active. 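G2 share is only a proxy for re-replication; each gene was hit by three separate siRNAs, and active genes were retested.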 The raw values are shown without normalisation. The numbers tell different reagents against one gene apart. No sequences are given here. Not stated in the record: the amount of reagent.

- Test: 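Gene knock-downs that lead to re-replication, shown by excess G2 DNA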 (primary screen)
- System: human HCT116 colorectal cancer cells
- Knock-down reagent: single siRNA against human genes
- Duration: 3 days
- Measured: 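Nuclei stained with Hoechst and imaged; cell-cycle phase assigned by DNA content; G2 share scaled per plate, non-targeting siRNA 0%, GMNN siRNA 100%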
- Direction: G2 robust z-score and G2 cells, % of GMNN control: higher = more G2 cells, more excess DNA replication; raw share of cells in G2: higher = larger share of cells with G2 DNA content
- Hit rule: 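An siRNA counts as active if its G2 robust z-score lies at least 5 MADs above the screen median; here such calls match roughly 38% of GMNN control or more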

gene,siRNA no.,G2 robust z-score,"G2 cells, % of GMNN control",raw share of cells in G2 (%),outcome
SOAT2,1,-0.467,-0.318,4.59,inactive
SOAT2,2,-1.65,-8.64,2.23,inactive
SOAT2,3,-0.417,0.0309,4.55,inactive
TENT5C,1,0.948,9.63,7.05,inactive
TENT5C,2,-0.0495,2.62,5.37,inactive
TENT5C,3,2.26,18.9,9.43,inactive
SLX4IP,1,3.2,25.5,13.8,inactive
SLX4IP,2,-0.538,-0.82,2.84,inactive
SLX4IP,3,-0.256,1.17,3,inactive
ZNF654,1,0.741,8.18,7.37,inactive
ZNF654,2,1.77,15.4,10.8,inactive
ZNF654,3,4.86,37.2,22.7,inactive
CNEP1R1,1,-0.902,-3.38,2.35,inactive
CNEP1R1,2,-0.602,-1.27,2.7,inactive
CNEP1R1,3,0.283,4.96,4.78,inactive

Laid out differently: results already given.
SOAT2 #1: G2 robust z-score = -0.467; G2 cells, % of GMNN control = -0.318; raw share of cells in G2 (%) = 4.59; outcome = inactive
SOAT2 #2: G2 robust z-score = -1.65; G2 cells, % of GMNN control = -8.64; raw share of cells in G2 (%) = 2.23; outcome = inactive
SOAT2 #3: G2 robust z-score = -0.417; G2 cells, % of GMNN control = 0.0309; raw share of cells in G2 (%) = 4.55; outcome = inactive
TENT5C #1: G2 robust z-score = 0.948; G2 cells, % of GMNN control = 9.63; raw share of cells in G2 (%) = 7.05; outcome = inactive

The listing continues:
gene,siRNA no.,G2 robust z-score,"G2 cells, % of GMNN control",raw share of cells in G2 (%),outcome
TMEM150C,1,6.67,49.9,22.9,active
TMEM150C,2,0.657,7.59,6.3,inactive
TMEM150C,3,0.244,4.69,4.71,inactive
GKN1,1,1.55,13.8,9.8,inactive
GKN1,2,0.585,7.08,7.84,inactive
GKN1,3,-0.765,-2.41,2.27,inactive
TLE2,1,10.3,75.3,33.3,active
TLE2,2,3.66,28.7,18.3,inactive
TLE2,3,0.0598,3.39,4.34,inactive
SNED1,1,-0.762,-2.39,5.08,inactive
SNED1,2,-0.759,-2.38,3.4,inactive
SNED1,3,1.2,11.4,7.74,inactive
EIF2AK2,1,-0.337,0.596,5.8,inactive
EIF2AK2,2,-1.26,-5.93,3.41,inactive
EIF2AK2,3,-0.554,-0.931,3.7,inactive
